These are yes or no findings as the source states them, for the method shown. A result given as binding can be weak or reduced; the word gives no strength. For part of these data: Where a sequence is shown, tags or fusion partners need not be part of it. Blank lines part the entries; values can stand above or below the molecule they belong to.
Tests used:
[1] = target: T1, LIN-42b (LIN-42^Period isoform, two-hybrid bait) (C. elegans) (UniProt Q65ZG8); experiment: two-hybrid
T1 sequence: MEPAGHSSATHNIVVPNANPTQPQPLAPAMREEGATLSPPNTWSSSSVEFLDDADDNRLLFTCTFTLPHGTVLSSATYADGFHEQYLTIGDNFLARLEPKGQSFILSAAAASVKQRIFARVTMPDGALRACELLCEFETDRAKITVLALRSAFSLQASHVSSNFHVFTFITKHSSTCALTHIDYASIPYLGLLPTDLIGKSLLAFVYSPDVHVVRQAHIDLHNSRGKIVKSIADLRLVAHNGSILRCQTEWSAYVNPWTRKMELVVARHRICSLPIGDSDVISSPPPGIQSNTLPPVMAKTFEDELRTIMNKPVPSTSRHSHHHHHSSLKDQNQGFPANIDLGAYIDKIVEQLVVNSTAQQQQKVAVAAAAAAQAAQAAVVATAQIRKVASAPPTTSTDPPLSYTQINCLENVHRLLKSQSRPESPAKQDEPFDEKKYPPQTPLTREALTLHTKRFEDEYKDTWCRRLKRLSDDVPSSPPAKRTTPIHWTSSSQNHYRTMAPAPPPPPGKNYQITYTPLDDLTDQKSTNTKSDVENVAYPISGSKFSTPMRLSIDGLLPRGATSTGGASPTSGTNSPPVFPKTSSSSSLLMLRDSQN

[2] = target: LIN-42a (LIN-42^Period isoform, two-hybrid bait) (C. elegans); experiment: two-hybrid

binding [1]: binds
Molecule: NHR-85 central hinge region (two-hybrid) (C. elegans) (domain or fragment)

binding [2]: binds
B1: NHR-85^Rev-Erb (two-hybrid fusion) (protein, UniProt Q9XUK7 1-514)
chain: MDLSTSGSLPCHLPLSLLTNLQTPPIDTSFSSPPATSSSSLLSPSPSSAFRPVVPKSLMNPQPAMDTFYMSAIQSLVVSTTNDDQYSEHGALEGSKSLAKDENASTSAGTILCQVCSDKASGFHYGVFACEGCKGFFRRSIQQKITYRACTRAEDCLILRNNRNRCQCCRLKKCLAVGMSRDAVRFGRVPKREKARMFEEMQKTNVQSQRDQIAIQYENLTEVMHKINQAFGTLQATLEKCTGPIYTDRCPITSNFIVIPLKAAIDFANSIPAFLSITQTQRVHLLQNSVFDVMLLASASASTSQHFPPGGLTYDQSSANPIIPQAIQSISARIRQLPPQTVPILTAIAVCQADLLPESQQPMLLAERLWCVLGKLGGIQSLATAPSLLADVRTLRQWHSDRLRQMSQISQHFSQNLLIAPVAAAAPVLLPPAFLSPPASATSTSSSSVKSEFIERHPSIASLLERPRRISSSGAQEPLNLSLPHVRHQVKRDVDSDEQLEEMKVSPVPTTLSE

binding [2]: no binding
B2: NHR-23^ROR (two-hybrid fusion) (protein, UniProt P41828 1-588)
chain: MACKVTGPNRHLTSVLEMSSFVYWPRSRQQAHNFPMQAVEQKLADATRTLHAKSSLQPSLSIETPKSKENDESGCESSNCMFHPHTIKSEPNFCFAREFKSVPDDFRIGGGDLQMGNNSKRLTCVIDTNRVDMAGILPDNMSFRGLPENKSLLVSAQIEVIPCKVCGDKSSGVHYGVITCEGCKGFFRRSQSSIVNYQCPRQKNCVVDRVNRNRCQYCRLKKCIELGMSRDAVKFGRMSKKQREKVEDEVRMHKELAANGLGYQAIYGDYSPPPSHPSYCFDQSMYGHYPSGTSTPVNGYSIAVAATPTTPMPQNMYGATPSSTNGTQYVAHQATGGSFPSPQVPEEDVATRVIRAFNQQHSSYTTQHGVCNVDPDCIPHLSRAGGWELFARELNPLIQAIIEFAKSIDGFMNLPQETQIQLLKGSVFELSLVFAAMYYNVDAQAVCGERYSVPFACLIAEDDAEMQLIVEVNNTLQEIVHLQPHQSELALLAAGLILEQVSSSHGIGILDTATIATAETLKNALYQSVMPRIGCMEDTIHRIQDVETRIRQTARLHQEALQNFRMSDPTSSEKLPALYKELFTADRP

Source: paper doi:10.1101/2022.09.26.509508
